Source: patent US20130171273A1, “METHOD OF TREATING IMPAIRED WOUND HEALING IN DIABETICS” (KUWAIT UNIVERSITY, priority 2011, published 2013)
For at least one compound, name, drawing or mass did not settle the structure.

Assays:
[1] = tested on: Nrf2; assay: Nuclear accumulation of Nrf2 in diabetic fibroblasts (subcellular fractionation, Western blot); format: cell-based, rat; settings: DFs pretreated 8 h with lithium chloride 50 mM or TDZD-8 50 μM; FIG. 4B only shown for lithium
Description: To quantify responses to oxidative stress activators, fibroblasts of control and of type 2 diabetes were treated with vehicle or the OS-inducing agents ‘t-butylhydroquinone (tBHQ, 100 μM, Sigma) or oligomycin (15 μM, Sigma) for 16 h. The Cells were processed for total RNA extraction or western blotting analysis as outlined below. Both of these compounds were dissolved in ethanol with a final concentration of 0.01%. […] To analyze protein expression and phosphorylation, cells were seeded in 6-well plates and treated as described above. They were washed with ice-cold PBS, scraped into PBS, and centrifuged at 1000 rpm for 5 min. The cell pellet was then subjected to subcellular fractionation. To make the total cell lysate, the cells were lysed with RIPA buffer supplemented with a protease inhibitor mixture and a phosphatase inhibitor mixture. The protein concentration was determined using BCA protein assay reagents (Pierce). […]

[2] = normal mice; cited from earlier work

[Li] [lithium]
basal and inducible levels of nuclear Nrf2 [1]: partially normalized
wound healing rate [2]: no influence
